Test results published in publication PMC7064775, “Cyclic di-GMP Signaling in Bacillus subtilis Is Governed by Direct Interactions of Diguanylate Cyclases and Cognate Receptors” (mBio, 2020).
These are yes or no findings as the source states them, for the method shown. Sequences can lack the tags named with a protein.

Molecular target: T1, GST-His6-DgcK-ΔN175 (Bacillus subtilis NCIB 3610, UniProt P54595 176-359)
T1 construct: Diguanylate cyclase DgcK of Bacillus subtilis NCIB 3610, soluble domain, residues 176 to 359 (construct pAT02a); also called pAT02a; source: E. coli BL21(DE3), purified (Ni-NTA, SEC); not shown: GST, N-terminal, kept; His6, N-terminal, kept
T1 sequence (looked up): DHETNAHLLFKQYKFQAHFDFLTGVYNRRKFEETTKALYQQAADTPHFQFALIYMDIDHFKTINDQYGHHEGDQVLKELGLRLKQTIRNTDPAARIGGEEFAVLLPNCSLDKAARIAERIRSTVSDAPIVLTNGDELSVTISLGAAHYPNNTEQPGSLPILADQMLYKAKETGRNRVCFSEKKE
Test: pull-down; 2 nmol GST-His6-DgcK-ΔN175 immobilised on glutathione-Sepharose 4B, 20 nmol His6-YdaK-ΔN111 or its R202A variant, with or without added c-di-GMP; 4°C, buffer A; Coomassie-stained SDS-PAGE; both purified

binding: no binding (tested: 20 nmol)
B1: His6-YdaK-ΔN111_R202A (domain or fragment, UniProt P96585 112-283)
chain: DITAELRRSMTRLQSEIKSYVAVDRVTGFDNKQRMKLELSEEIKRAERYGNSFVFLLLHMHYFKEFKSLYGEKETDRLFQYVGQQIRTSVAETDKKFRPSDERIGIVLTHTPAEHMPAVLTKLKKQLDTYQLENGKYVSLTFHVCYLPYRNDIQTADQFLEELENEMMMNEL
